Reference: the supplement of paper PMC7661543
Differences between knockout arms are mostly noise.

System: SKBR3
Assay: relative cell number vs DMSO control (72 h) (% of DMSO); higher = less growth inhibition (more cells)
Protocol: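 QMAP-Seq: a pool of 5 breast cancer cell lines (ZR-75-1, SKBR3, HCC-38, MDA-MB-231, BT-20), each carrying 12 doxycycline-inducible Cas9 sgRNA perturbations (11 knockouts plus non-targeting sgNT), was treated with compounds for 72 h at four 10-fold doses (10 nM-10 uM or 1 nM-1 uM range). Barcodes were amplified and sequenced, and cell number was interpolated from 293T spike-in standard curves. The result is expressed as % of the median of DMSO wells. Two biological replicates.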

Cc1cnc(-c2cnc(NCCNc3ccc(C#N)cn3)nc2-c2ccc(Cl)cc2Cl)[nH]1
Details | relative cell number
sgRNA knockout: sgATF3, 10 nM | 91.8
sgRNA knockout: sgATF3, 100 nM | 112
sgRNA knockout: sgATF3, 1000 nM | 87.1
sgRNA knockout: sgATF3, 10000 nM | 72.3
sgRNA knockout: sgATF4, 10 nM | 87.2
sgRNA knockout: sgATF4, 100 nM | 87.5
sgRNA knockout: sgATF4, 1000 nM | 82.5
sgRNA knockout: sgATF4, 10000 nM | 65.3
sgRNA knockout: sgATF6, 10 nM | 75.6
sgRNA knockout: sgATF6, 100 nM | 86.8
sgRNA knockout: sgATF6, 1000 nM | 86.5
sgRNA knockout: sgATF6, 10000 nM | 56.9
sgRNA knockout: sgATG7, 10 nM | 87.6
sgRNA knockout: sgATG7, 100 nM | 65.3
sgRNA knockout: sgATG7, 1000 nM | 78.6
sgRNA knockout: sgATG7, 10000 nM | 64.9
sgRNA knockout: sgERN1, 10 nM | 96.5
sgRNA knockout: sgERN1, 100 nM | 101
sgRNA knockout: sgERN1, 1000 nM | 108
sgRNA knockout: sgERN1, 10000 nM | 82.4
sgRNA knockout: sgHSF1, 10 nM | 94.1
sgRNA knockout: sgHSF1, 100 nM | 86.6
sgRNA knockout: sgHSF1, 1000 nM | 90.26
sgRNA knockout: sgHSF1, 10000 nM | 69.4
sgRNA knockout: sgHSF2, 10 nM | 82.9
sgRNA knockout: sgHSF2, 100 nM | 102
sgRNA knockout: sgHSF2, 1000 nM | 82.3
sgRNA knockout: sgHSF2, 10000 nM | 66.8
sgRNA knockout: sgKEAP1, 10 nM | 76
sgRNA knockout: sgKEAP1, 100 nM | 82.4
sgRNA knockout: sgKEAP1, 1000 nM | 84.8
sgRNA knockout: sgKEAP1, 10000 nM | 67.5
sgRNA knockout: sgNFE2L2, 10 nM | 101
sgRNA knockout: sgNFE2L2, 100 nM | 73
sgRNA knockout: sgNFE2L2, 1000 nM | 103
sgRNA knockout: sgNFE2L2, 10000 nM | 80.2
sgRNA knockout: sgSLC35F2, 10 nM | 95.7
sgRNA knockout: sgSLC35F2, 100 nM | 81.5
sgRNA knockout: sgSLC35F2, 1000 nM | 80
sgRNA knockout: sgSLC35F2, 10000 nM | 71.4
sgRNA knockout: sgXBP1, 10 nM | 113
sgRNA knockout: sgXBP1, 100 nM | 124
sgRNA knockout: sgXBP1, 1000 nM | 88.7
sgRNA knockout: sgXBP1, 10000 nM | 77

Cc1ccccc1-n1c(Cn2cnc3c(N)ncnc32)nc2cccc(C)c2c1=O
Details | relative cell number
sgRNA knockout: sgATF3, 10 nM | 130
sgRNA knockout: sgATF3, 100 nM | 127
sgRNA knockout: sgATF3, 1000 nM | 114
sgRNA knockout: sgATF3, 10000 nM | 110
sgRNA knockout: sgATF4, 10 nM | 89
sgRNA knockout: sgATF4, 100 nM | 110
sgRNA knockout: sgATF4, 1000 nM | 91.4
sgRNA knockout: sgATF4, 10000 nM | 90.1
sgRNA knockout: sgATF6, 10 nM | 75.5
sgRNA knockout: sgATF6, 100 nM | 96.2
sgRNA knockout: sgATF6, 1000 nM | 77.94
sgRNA knockout: sgATF6, 10000 nM | 70.2
sgRNA knockout: sgATG7, 10 nM | 110
sgRNA knockout: sgATG7, 100 nM | 108
sgRNA knockout: sgATG7, 1000 nM | 102
sgRNA knockout: sgATG7, 10000 nM | 117
sgRNA knockout: sgERN1, 10 nM | 111.9
sgRNA knockout: sgERN1, 100 nM | 124.7
sgRNA knockout: sgERN1, 1000 nM | 90.9
sgRNA knockout: sgERN1, 10000 nM | 118
sgRNA knockout: sgHSF1, 10 nM | 84.2
sgRNA knockout: sgHSF1, 100 nM | 97.4
sgRNA knockout: sgHSF1, 1000 nM | 87.23
sgRNA knockout: sgHSF1, 10000 nM | 102
sgRNA knockout: sgHSF2, 10 nM | 97.7
sgRNA knockout: sgHSF2, 100 nM | 107
sgRNA knockout: sgHSF2, 1000 nM | 82.5
sgRNA knockout: sgHSF2, 10000 nM | 89.5
sgRNA knockout: sgKEAP1, 10 nM | 78.1
sgRNA knockout: sgKEAP1, 100 nM | 91.3
sgRNA knockout: sgKEAP1, 1000 nM | 97
sgRNA knockout: sgKEAP1, 10000 nM | 95.98
sgRNA knockout: sgNFE2L2, 10 nM | 103
sgRNA knockout: sgNFE2L2, 100 nM | 130
sgRNA knockout: sgNFE2L2, 1000 nM | 83.3
sgRNA knockout: sgNFE2L2, 10000 nM | 103.7
sgRNA knockout: sgSLC35F2, 10 nM | 94.5
sgRNA knockout: sgSLC35F2, 100 nM | 103
sgRNA knockout: sgSLC35F2, 1000 nM | 81.6
sgRNA knockout: sgSLC35F2, 10000 nM | 92.3
sgRNA knockout: sgXBP1, 10 nM | 115
sgRNA knockout: sgXBP1, 100 nM | 112
sgRNA knockout: sgXBP1, 1000 nM | 104
sgRNA knockout: sgXBP1, 10000 nM | 118

O=c1ncccn1[C@@H]1O[C@H](CO)[C@@H](O)[C@H]1O [Zebularine]
Details | relative cell number
sgRNA knockout: sgATF3, 10 nM | 119
sgRNA knockout: sgATF3, 100 nM | 99.1
sgRNA knockout: sgATF3, 1000 nM | 97
sgRNA knockout: sgATF3, 10000 nM | 99.7
sgRNA knockout: sgATF4, 10 nM | 104
sgRNA knockout: sgATF4, 100 nM | 92.6
sgRNA knockout: sgATF4, 1000 nM | 102.3
sgRNA knockout: sgATF4, 10000 nM | 113
sgRNA knockout: sgATF6, 10 nM | 93.3
sgRNA knockout: sgATF6, 100 nM | 98.4
sgRNA knockout: sgATF6, 1000 nM | 98.5
sgRNA knockout: sgATF6, 10000 nM | 88.15
sgRNA knockout: sgATG7, 10 nM | 121
sgRNA knockout: sgATG7, 100 nM | 105
sgRNA knockout: sgATG7, 1000 nM | 78.7
sgRNA knockout: sgATG7, 10000 nM | 108
sgRNA knockout: sgERN1, 10 nM | 125
sgRNA knockout: sgERN1, 100 nM | 109
sgRNA knockout: sgERN1, 1000 nM | 83
sgRNA knockout: sgERN1, 10000 nM | 104
sgRNA knockout: sgHSF1, 10 nM | 107
sgRNA knockout: sgHSF1, 100 nM | 98.4
sgRNA knockout: sgHSF1, 1000 nM | 98.3
sgRNA knockout: sgHSF1, 10000 nM | 106.7
sgRNA knockout: sgHSF2, 10 nM | 129
sgRNA knockout: sgHSF2, 100 nM | 91.6
sgRNA knockout: sgHSF2, 1000 nM | 92.2
sgRNA knockout: sgHSF2, 10000 nM | 121
sgRNA knockout: sgKEAP1, 10 nM | 103
sgRNA knockout: sgKEAP1, 100 nM | 108
sgRNA knockout: sgKEAP1, 1000 nM | 89.5
sgRNA knockout: sgKEAP1, 10000 nM | 124
sgRNA knockout: sgNFE2L2, 10 nM | 119
sgRNA knockout: sgNFE2L2, 100 nM | 105
sgRNA knockout: sgNFE2L2, 1000 nM | 108
sgRNA knockout: sgNFE2L2, 10000 nM | 111
sgRNA knockout: sgSLC35F2, 10 nM | 116
sgRNA knockout: sgSLC35F2, 100 nM | 101
sgRNA knockout: sgSLC35F2, 1000 nM | 82.2
sgRNA knockout: sgSLC35F2, 10000 nM | 84.4
sgRNA knockout: sgXBP1, 10 nM | 106
sgRNA knockout: sgXBP1, 100 nM | 94.3
sgRNA knockout: sgXBP1, 1000 nM | 83.9
sgRNA knockout: sgXBP1, 10000 nM | 97.1
